B1: heat shock protein 90-5 (protein, UniProt Q9SIF2 61-780)
chain: CDAAVAEKETTEEGSGEKFEYQAEVSRLLDLIVHSLYSHKEVFLRELVSNASDALDKLRFLSVTEPSLLGDGGDLEIRIKPDPDNGTITITDTGIGMTKEELIDCLGTIAQSGTSKFLKALKENKDLGADNGLIGQFGVGFYSAFLVAEKVVVSTKSPKSDKQYVWESVADSSSYLIREETDPDNILRRGTQITLYLREDDKYEFAESTRIKNLVKNYSQFVGFPIYTWQEKSRTIEVEEDEPVKEGEEGEPKKKKTTKTEKYWDWELANETKPLWMRNSKEVEKGEYNEFYKKAFNEFLDPLAHTHFTTEGEVEFRSILYIPGMGPLNNEDVTNPKTKNIRLYVKRVFISDDFDGELFPRYLSFVKGVVDSDDLPLNVSREILQESRIVRIMRKRLIRKTFDMIQEISESENKEDYKKFWENFGRFLKLGCIEDTGNHKRITPLLRFFSSKNEEELTSLDDYIENMGENQKAIYYLATDSLKSAKSAPFLEKLIQKDIEVLYLVEPIDEVAIQNLQTYKEKKFVDISKEDLELGDEDEVKDREAKQEFNLLCDWIKQQLGDKVAKVQVSNRLSSSPCVLVSGKFGWSANMERLMKAQALGDTSSLEFMRGRRILEINPDHPIIKDLNAACKNAPESTEATRVVDLLYDTAIISSGFTPDSPAELGNKIYEMMAMAVGGRWGRVEEEEESSTVNEGDDKSGETEVVEPSEVRAESDPWQD
B2: CP29A (protein, UniProt Q43349 66-342)
chain: NVAVSSDFEVEEDDMFADGDDSAPVERNSFSPDLKLFVGNLSFNVDSAQLAQLFESAGNVEMVEVIYDKVTGRSRGFGFVTMSTAAEVEAAAQQFNGYEFEGRPLRVNAGPPPPKREESFSRGPRSGGYGSERGGGYGSERGGGYGSERGGGYGSERGGGYGSQRSGGGYGGSQRSSYGSGSGSGSGSGSGNRLYVGNLSWGVDDMALENLFNEQGKVVEARVIYDRDSGRSKGFGFVTLSSSQEVQKAINSLNGADLDGRQIRVSEAEARPPRGQF
B3: RIP1 (MORF 8) (protein, UniProt Q9LKA5 57-395)
chain: GGLVSVKGLSTQATSSSLNDPNPNWSNRPPKETILLDGCDFEHWLVVVEPPQGEPTRDEIIDSYIKTLAQIVGSEDEARMKIYSVSTRCYYAFGALVSEDLSHKLKELSNVRWVLPDSYLDVRNKDYGGEPFIDGKAVPYDPKYHEEWIRNNARANERNRRNDRPRNNDRSRNFERRRENMAGGPPPQRPPMGGPPPPPHIGGSAPPPPHMGGSAPPPPHMGQNYGPPPPNNMGGPRHPPPYGAPPQNNMGGPRPPQNYGGTPPPNYGGAPPANNMGGAPPPNYGGGPPPQYGAVPPPQYGGAPPQNNNYQQQGSGMQQPQYQNNYPPNRDGSGNPYQG
B4: CHLI1 (magnesium chelatase subunit) (protein, UniProt P16127 61-424)
chain: VMNVATEINSTEQVVGKFDSKKSARPVYPFAAIVGQDEMKLCLLLNVIDPKIGGVMIMGDRGTGKSTTVRSLVDLLPEINVVAGDPYNSDPIDPEFMGVEVRERVEKGEQVPVIATKINMVDLPLGATEDRVCGTIDIEKALTEGVKAFEPGLLAKANRGILYVDEVNLLDDHLVDVLLDSAASGWNTVEREGISISHPARFILIGSGNPEEGELRPQLLDRFGMHAQVGTVRDADLRVKIVEERARFDSNPKDFRDTYKTEQDKLQDQISTARANLSSVQIDRELKVKISRVCSELNVDGLRGDIVTNRAAKALAALKGKDRVTPDDVATVIPNCLRHRLRKDPLESIDSGVLVSEKFAEIFS
B5: GUN5 (magnesium chelatase subunit) (protein, UniProt Q9FNB0 50-1381)
chain: AVSGNGLFTQTNPEVRRIVPIKRDNVPTVKIVYVVLEAQYQSSLSEAVQSLNKTSRFASYEVVGYLVEELRDKNTYNNFCEDLKDANIFIGSLIFVEELAIKVKDAVEKERDRMDAVLVFPSMPEVMRLNKLGSFSMSQLGQSKSPFFQLFKRKKQGSAGFADSMLKLVRTLPKVLKYLPSDKAQDARLYILSLQFWLGGSPDNLQNFVKMISGSYVPALKGVKIEYSDPVLFLDTGIWHPLAPTMYDDVKEYWNWYDTRRDTNDSLKRKDATVVGLVLQRSHIVTGDDSHYVAVIMELEARGAKVVPIFAGGLDFSGPVEKYFVDPVSKQPIVNSAVSLTGFALVGGPARQDHPRAIEALKKLDVPYLVAVPLVFQTTEEWLNSTLGLHPIQVALQVALPELDGAMEPIVFAGRDPRTGKSHALHKRVEQLCIRAIRWGELKRKTKAEKKLAITVFSFPPDKGNVGTAAYLNVFASIFSVLRDLKRDGYNVEGLPENAETLIEEIIHDKEAQFSSPNLNVAYKMGVREYQDLTPYANALEENWGKPPGNLNSDGENLLVYGKAYGNVFIGVQPTFGYEGDPMRLLFSKSASPHHGFAAYYSYVEKIFKADAVLHFGTHGSLEFMPGKQVGMSDACFPDSLIGNIPNVYYYAANNPSEATIAKRRSYANTISYLTPPAENAGLYKGLKQLSELISSYQSLKDTGRGPQIVSSIISTAKQCNLDKDVDLPDEGLELSPKDRDSVVGKVYSKIMEIESRLLPCGLHVIGEPPSAMEAVATLVNIAALDRPEDEISALPSILAECVGREIEDVYRGSDKGILSDVELLKEITDASRGAVSAFVEKTTNSKGQVVDVSDKLTSLLGFGINEPWVEYLSNTKFYRANRDKLRTVFGFLGECLKLVVMDNELGSLMQALEGKYVEPGPGGDPIRNPKVLPTGKNIHALDPQAIPTTAAMASAKIVVERLVERQKLENEGKYPETIALVLWGTDNIKTYGESLGQVLWMIGVRPIADTFGRVNRVEPVSLEELGRPRIDVVVNCSGVFRDLFINQMNLLDRAIKMVAELDEPVEQNFVRKHALEQAEALGIDIREAATRVFSNASGSYSANISLAVENSSWNDEKQLQDMYLSRKSFAFDSDAPGAGMAEKKQVFEMALSTAEVTFQNLDSSEISLTDVSHYFDSDPTNLVQSLRKDKKKPSSYIADTTTANAQVRTLSETVRLDARTKLLNPKWYEGMMSSGYEGVREIEKRLSNTVGWSATSGQVDNWVYEEANSTFIQDEEMLNRLMNTNPNSFRKMLQTFLEANGRGYWDTSAENIEKLKELYSQVEDKIEGIDR
B6: DEAD box RNA helicase (RH3) (enzyme, UniProt Q8L7S8 61-748)
chain: AVATPNSVLSEEAFKSLGLSDHDEYDLDGDNNNVEADDGEELAISKLSLPQRLEESLEKRGITHLFPIQRAVLVPALQGRDIIARAKTGTGKTLAFGIPIIKRLTEEAGDYTAFRRSGRLPKFLVLAPTRELAKQVEKEIKESAPYLSTVCVYGGVSYTIQQSALTRGVDVVVGTPGRIIDLIEGRSLKLGEVEYLVLDEADQMLAVGFEEAVESILENLPTKRQSMLFSATMPTWVKKLARKYLDNPLNIDLVGDQDEKLAEGIKLYAIATTSTSKRTILSDLITVYAKGGKTIVFTQTKRDADEVSLALSNSIATEALHGDISQHQRERTLNAFRQGKFTVLVATDVASRGLDIPNVDLVIHYELPNDPETFVHRSGRTGRAGKEGSAILMHTSSQKRTVRSLERDVGCHFEFISPPTVGDLLESSADQVVATLNGVHPDSIKFFSATAQKLYEEKGTDALAAALAHLSGFSQPPSSRSLLSHEKGWVTLQLIRDPTNARGFLSARSVTGFLSDLYRTAADEVGKIFLIADDRIQGAVFDLPEEIAKELLEKDVPEGNSLSMITKLPPLQDDGPSSDNYGRFSSRDRMPRGGGGSRGSRGGRGGSSRGRDSWGGDDDRGSRRSSGGGSSWSRGGSSSRGSSDDWLIGGRSSSSSRAPSRERSFGGSCFICGKSGHRATDCPDKRGF
B7: FNR2 (At1g20020) (enzyme, UniProt Q8W493 58-369)
chain: ITTETDTPTPAKKVEKVSKKNEEGVIVNRYRPKEPYTGKCLLNTKITADDAPGETWHMVFSHQGEIPYREGQSVGVIADGIDKNGKPHKVRLYSIASSALGDLGNSETVSLCVKRLVYTNDQGETVKGVCSNFLCDLAPGSDVKLTGPVGKEMLMPKDPNATVIMLATGTGIAPFRSFLWKMFFEKHDDYKFNGLAWLFLGVPTTSSLLYQEEFDKMKAKAPENFRVDYAISREQANDKGEKMYIQTRMAQYAAELWELLKKDNTFVYMCGLKGMEKGIDDIMVSLAANDGIDWFDYKKQLKKAEQWNVEVY
B8: Rubisco activase (protein, UniProt P10896 59-474)
chain: AVKEDKQTDGDRWRGLAYDTSDDQQDITRGKGMVDSVFQAPMGTGTHHAVLSSYEYVSQGLRQYNLDNMMDGFYIAPAFMDKLVVHITKNFLTLPNIKVPLILGIWGGKGQGKSFQCELVMAKMGINPIMMSAGELESGNAGEPAKLIRQRYREAADLIKKGKMCCLFINDLDAGAGRMGGTTQYTVNNQMVNATLMNIADNPTNVQLPGMYNKEENARVPIICTGNDFSTLYAPLIRDGRMEKFYWAPTREDRIGVCKGIFRTDKIKDEDIVTLVDQFPGQSIDFFGALRARVYDDEVRKFVESLGVEKIGKRLVNSREGPPVFEQPEMTYEKLMEYGNMLVMEQENVKRVQLAETYLSQAALGDANADAIGRGTFYGKGAQQVNLPVPEGCTDPVAENFDPTARSDDGTCVYNF
B9: PORC (At1g03630) (enzyme, UniProt O48741 68-401)
chain: QTVTATPPANEASPEQKKTERKGTAVITGASSGLGLATAKALADTGKWHVIMACRNFLKAEKAARSVGMSKEDYTVMHLDLASLESVKQFVENFRRTEQPLDVLVCNAAVYQPTAKEPSFTAEGFEISVGTNHLGHFLLSRLLLDDLKKSDYPSKRMIIVGSITGNTNTLAGNVPPKANLGDLRGLASGLNGQNSSMIDGGEFDGAKAYKDSKVCNMLTMQELHRRYHEETGVTFASLYPGCIATTGLFREHIPLFRLLFPPFQKYITKGYVSEEEAGKRLAQVVSDPSLGKSGVYWSWNNNSSSFENQLSKEASDAEKAKKLWEVSEKLVGLA
B10: GUN4 (protein, UniProt Q9LX31 70-265)
chain: ASATTAETATIFDVLENHLVNQNFRQADEETRRLLIQISGEAAVKRGYVFFSEVKTISPEDLQAIDNLWIKHSDGRFGYSVQRKIWLKVKKDFTRFFVKVEWMKLLDTEVVQYNYRAFPDEFKWELNDETPLGHLPLTNALRGTQLLKCVLSHPAFATADDNSGETEDELNRGVAVAKEQAGVGADKRVFKTNYSF
B11: CHLI2 (At5g45930) (protein, UniProt Q5XF33 56-418)
chain: VMNVATEINSVEQAKKIDSKESARPVYPFAAIVGQDEMKLCLLLNVIDPKIGGVMIMGDRGTGKSTTVRSLVDLLPEITVVSGDPYNSDPRDPECMGKEVREKVQKGEELSVIETKINMVDLPLGATEDRVCGTIDIEKALTEGVKAFEPGLLAKANRGILYVDEVNLLDDHLVDVLLDSAASGWNTVEREGISISHPARFILIGSGNPEEGELRPQLLDRFGMHAQVGTVRDAELRVKIVEERARFDSNPKEFRETYQEEQLKLQEQITTARSNLSAVQIDQDLKVKISKVCAELDVDGLRGDMVINRAARALAALQGRDQVTAEDVGIVIPNCLRHRLRKDPLESMDSGILVTEKFYEVFT

By UniProt entry, the sequences of proteins in these tests, tags left out. Residues count along the entry.
UniProt Q9SI75, residues 81-783: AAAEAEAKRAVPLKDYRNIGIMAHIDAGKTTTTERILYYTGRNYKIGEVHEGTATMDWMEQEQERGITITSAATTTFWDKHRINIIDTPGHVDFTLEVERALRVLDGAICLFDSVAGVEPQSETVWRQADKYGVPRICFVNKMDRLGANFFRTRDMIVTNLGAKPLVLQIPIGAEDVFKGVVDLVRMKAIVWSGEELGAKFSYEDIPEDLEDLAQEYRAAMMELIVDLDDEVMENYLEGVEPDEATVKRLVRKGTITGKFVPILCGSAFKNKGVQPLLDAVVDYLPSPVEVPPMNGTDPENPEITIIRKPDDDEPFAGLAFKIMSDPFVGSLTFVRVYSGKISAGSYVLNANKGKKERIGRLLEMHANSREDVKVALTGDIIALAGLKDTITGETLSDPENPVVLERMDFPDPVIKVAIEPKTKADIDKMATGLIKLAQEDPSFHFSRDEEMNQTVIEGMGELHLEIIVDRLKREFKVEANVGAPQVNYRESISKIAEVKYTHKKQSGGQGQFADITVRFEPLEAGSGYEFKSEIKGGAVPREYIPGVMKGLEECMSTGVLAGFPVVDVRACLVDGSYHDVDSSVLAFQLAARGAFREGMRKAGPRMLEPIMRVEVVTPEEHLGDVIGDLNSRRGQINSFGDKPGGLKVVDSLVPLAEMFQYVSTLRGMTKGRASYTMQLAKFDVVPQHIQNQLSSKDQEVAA

Eleven molecules from article PMC7674640 can be followed below.

These are yes or no findings as the source states them, for the method shown. Binding seen in cells or lysates may run through a third protein. These calls come from enrichment with a bait or labelling near it, and not all partners need be listed.

The target of this assay is SCO1-GFP (snowy cotyledon 1 fused to GFP) (Arabidopsis thaliana) (UniProt Q9SI75). Nature of the assay: affinity purification with mass spectrometry; plastidial stress granules (cpSG) from heat/dark-treated (42°C, 30 min) 35S:SCO1-GFP seedlings enriched by differential centrifugation, then purified with anti-GFP rabbit IgG and protein A Dynabeads; lysis buffer 50 mM Tris-HCl pH 7.4, 100 mM potassium acetate, 2 mM magnesium acetate, 0.5% NP-40; hits absent from or enriched (fold change > 2, p < 0.05) against isolates of control seedlings.
Regarding B1, the binding entry was “binds”.
Turning to B2, the binding entry is recorded as “binds”.
Take B3: the binding result is on record as “binds”.
With B4, the binding result was “binds”.
Turning to B5, the binding entry was “binds”.
As to B6, the binding entry was “binds”.
B7: the binding result is “binds”.
Take B8: the binding entry is given as “binds”.
In the case of B9, the binding entry is “binds”.
For the molecule B10, the binding entry is “binds”.
The value for B11 was “binds”.
